# Molecular target: T1, OATP1B3 (Homo sapiens, UniProt Q9NPD5)
# T1 sequence (Q9NPD5 1-702): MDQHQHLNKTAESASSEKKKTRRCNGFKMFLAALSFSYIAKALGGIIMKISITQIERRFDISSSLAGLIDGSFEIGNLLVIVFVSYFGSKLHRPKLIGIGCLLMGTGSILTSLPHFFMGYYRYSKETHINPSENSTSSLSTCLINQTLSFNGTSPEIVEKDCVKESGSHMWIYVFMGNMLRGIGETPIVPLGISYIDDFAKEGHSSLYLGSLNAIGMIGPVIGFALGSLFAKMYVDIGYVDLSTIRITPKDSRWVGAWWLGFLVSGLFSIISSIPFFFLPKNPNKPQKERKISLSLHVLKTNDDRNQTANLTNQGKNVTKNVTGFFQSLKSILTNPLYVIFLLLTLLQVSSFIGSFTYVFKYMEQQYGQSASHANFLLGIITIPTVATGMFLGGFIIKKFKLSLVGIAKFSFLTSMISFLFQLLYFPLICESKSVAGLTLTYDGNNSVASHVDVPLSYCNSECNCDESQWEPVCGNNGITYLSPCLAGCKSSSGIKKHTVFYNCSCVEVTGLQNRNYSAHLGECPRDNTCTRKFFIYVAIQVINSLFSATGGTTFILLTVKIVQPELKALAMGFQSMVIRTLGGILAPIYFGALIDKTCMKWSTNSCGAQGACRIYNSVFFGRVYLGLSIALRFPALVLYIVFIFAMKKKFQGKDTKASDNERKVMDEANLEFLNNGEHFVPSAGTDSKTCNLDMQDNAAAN
# Assay: in vitro
smiles,measurement,value
"CCC[C@@H]1C[C@@H](C(=O)N[C@@H]([C@H]2O[C@H](SC)[C@H](O)[C@@H](O)[C@H]2O)[C@H](C)Cl)N(C)C1 [A35, clindamycin]",inhibition at 100 μmol/L,64 to 88%

# From publication PMC6804443 (Acta Pharmaceutica Sinica. B, 2019)
